Measurements taken from US6617361B2, “Behavior chemotherapy” (Be Able, LLC, priority 1999, dated 2003).
Counter-ions that a name gives are not always drawn. For part of these data: At least one compound was matched to its structure with a doubt left. Some of these results come from one statement about several compounds together.

Columns and labels:
[1] = test system: Patient six; test: Protocol and results with patient six, Example 10 (fibromyalgia, obesity); type: in vivo, human; conditions: chronic therapy for three months
Description: This longstanding patient was first seen in 1988 for fibromyalgia. They are also bothered by chronic low back pain, mitral valve prolapse, sleep disturbance, a family history of coronary disease, and obesity. They are 5′8″ tall, 205½ lb. […] Their problem list contained the additional diagnoses of GERD, carpal tunnel syndrome, suspected mitral valve prolapse, and acne rosacea.
Their medication list included Synthroid, Estratest, Klonopin, Prilosec, Limbitrol, Provera, Premarin and Zostrix cream. […] They frequented health food stores, as well as chiropractors for relief.
Although greatly fearful of potential long-term problems, the patient finally agreed to the institution of a change in their medications and started therapy which was a major change in their medicines December 1995. […] At that time the patient's weight was in the mid 180s. Their other medications were continued.
This was an independent patient-initiated decision.

[2] = test system: Patient five; test: Protocol and results with patient five (severe obesity); type: in vivo, human; conditions: by December 1997; combination Ionamin 30 mg + fenfluramine 20 mg + Zoloft 25 mg q.d. since August 1995
Description: This person has been a patient in this practice for many years. Their medical problems are extremely long-lived and include chronic depression, severe obesity, hypertension, stasis dermatitis, and venous insufficiency of the lower extremities, and seborrhea.
In addition they were taking Lasix, Zaroxolyn and potassium for the control of their severe edema and leg pain. They were also using the CPAP machine.
At their insistence Meridia and Adalat were attempted. […] To augment the weight loss the patient was started on Nutrimed three times daily plus a regular dinner.

[3] = test system: Patient two; test: Protocol and results with patient two (leg pain, absence of energy); type: in vivo, human; conditions: by August 1999; Celexa + Adipex-P + Aricept (atenolol at first)
Description: First evaluated this 5′4″, ectomorphic, single person who was […] at the time.
On Nov. […] They were started on Celexa 10 mg, Adipex-P 37.5 one-half tablet, and atenolol 25 mg all in the morning.
They will keep in touch with me as they will take each instruction for four doses and then go to the next.

[4] = test system: Patient six; test: Protocol and results with patient six, Example 12 (thalamic pain syndrome, ethanol use)
Description: Person with sudden onset of numbness right side of body in Guyana 1973. […] Diagnosis was thalamic pain syndrome.
Other medical problems: borderline hypertension, obesity secondary to ETOH, hemorrhoids, and remote short-lived cigarette smoking.
At the time therapy started the patient was taking either hydrocodone/APAPE 7.5/500 as needed or Percocet. […] Therapy was started with Adipex-P 37.5 one-half p.o. bid., fenfluramine 10 mg p.o. q.a.m., Celexa 10 mg p.o. q.a.m., Nutrimed three times daily plus dinner for nutritional support (Nutrimed is a high protein, low carbohydrate semi-starvation fast), Librium 30 mg q.d. because of the discontinuation of alcohol, atenolol 25 mg q.a.m. Treatment started July 1999.
By mid-August, approximately five weeks into therapy, the patient was still on Nutrimed and Adipex but the fenfluramine was diminished to one-quarter of a pill or 5 mg. The atenolol was discontinued and the patient was encouraged to exercise.

[5] = test system: Patient four; test: Protocol and results with patient four (morbid obesity, cardiomyopathy); type: in vivo, human; conditions: Adipex-P 37.5 one-half + Celexa 10 mg twice weekly + Aricept one-quarter pill MWF, in the absence of fenfluramine
Description: This person has been in the practice for several years. Their medical problems surround a cardiomyopathy with a low cardiac output state and heart failure. They also have a history of hypertension, hypothyroidism on therapy, and morbid obesity.
Medication alterations continued over the next several months with increasing Ionamin to 30 mg. Hytrin was added at 2 mg because of prostatic symptoms and in November Pondimin was added.
Adipex-P 37.5 one-half was added to their medications. […]

[6] = test system: Patient three; test: Protocol and results with patient three (chronic fatigue); conditions: within two days; combination Adipex-P 37.5 mg one-half b.i.d. + Celexa 10 mg q.d. + fenfluramine 10 mg q.d. + Aricept one-half q.d.
Description: Longstanding patient in my practice who […] developed a viral illness followed by chronic fatigue. This problem persisted, numerous evaluations and consultations were obtained, in excess of 20 physicians were consulted, and the patient was followed for nine months in a major medical center with the diagnosis of chronic Lyme disease. Prior to this their symptoms included a compendium of mild lifelong autonomic dysfunction including chronic bladder and urethral problems which necessitated urological surgery in the distant past. They had not retired from work but had taken long leaves of absence and found it difficult to keep up their normal work schedule as a social worker, something they had done for many years. In the past for their autonomic dysfunction they had been placed on Depakote, Wellbutrin, and amitriptyline and they were on this when they became ill.
Their other medical problems included mitral valve prolapse with click and no murmur but no symptoms, a history of endometriosis, occasional kidney stones, and an ovarian cyst.
Therapy was begun on May 26, 1999. On Jun. […] They were still on 12.5 mg of Elavil or one-half pill and some minocin for acne, Wellbutrin from their psychiatrist, and Zithromax, an antibiotic started by other physicians for the treatment of Lyme disease. […]

[7] = combination Adipex-P 37.5 one-half b.i.d. + fenfluramine 10 mg + Celexa 10 mg + Nutrimed three times daily (+ atenolol 25 mg)

C[C@H]1c2cccc(O)c2C(=O)C2=C(O)[C@]3(O)C(=O)C(C(N)=O)=C(O)[C@@H](N(C)C)[C@@H]3[C@@H](O)[C@@H]21 [doxycycline]
outcome of earlier therapy for fibromyalgia [1]: without success

CN[C@H]1CC[C@@H](c2ccc(Cl)c(Cl)c2)c2ccccc21 [Zoloft, sertraline HCl]
weight lost [2]: > 100 lb

CN(C)CCCC1(c2ccc(F)cc2)OCc2cc(C#N)ccc21 (stereo not drawn) [Celexa, citalopram]
leg aches [3]: resolution of their leg aches | body weight change ([4]; approximately five weeks into therapy, combination Adipex-P + fenfluramine + Celexa + Nutrimed): marked weight loss | energy level [4, 7]: marked improvement in energy level | pain as described by patient [4, 7]: markedly diminished | alcohol withdrawal phenomena ([4]; combination Adipex-P 37.5 one-half b.i.d. + fenfluramine 10 mg + Celexa 10 mg + Nutrimed three times daily + Librium 30 mg (three days) + atenolol 25 mg): no withdrawal phenomena | improvement (weight, fatigue) [5]: essentially no improvement | patient-reported status [6]: life had been transformed back towards its normal status
